No constants are given. Whether binding was seen depends on the method and setting. Sequences can lack the tags named with a protein.
Biological target: GFP-SYD-2 SAM(844–1139) (C. elegans) (UniProt Q21049)
Test: pull-down; 1 ug of each purified GFP construct pre-bound to GFP-trap agarose beads in 20 mM Tris (pH 7.4), 500 mM NaCl, 5 mM beta-mercaptoethanol; select GFP samples pre-phosphorylated by SAD-1; 1 ug of each MBP-conjugated prey incubated 1 h; beads washed sparingly; SDS gel stained with Coomassie; both purified

B1: MBP-SYD-2 IDR(517–843) (domain or fragment, UniProt Q21049 517-843)
chain: QSRMHAIPFTHAQNIVQQQPQASIAQQSAYQMYKQQPAQQYQTVGMRRPNKGRISALQDDPNKVQTLNEQEWDRLQQAHVLANVQQAFSSSPSLADVGQSTLPRPNTAVQHQQDDMMNSGMGMPSGMQGGMQGGMGGGQDAQMLASMLQDRLDAINTEIRLIQQEKHHAERVAEQLERSSREFYDDQGISTRSSPRASPQLDNMRQHKYNTLPANVSGDRRYDIYGNPQFVDDRMVRDLDYEPRRGYNQFDEMQYERDRMSPASSVASSTDGVLGGKKKRSNSSSGLKTLGRFFNKKKNSSSDLFKRNGDYSDGEQSGTEGNQKADY
- binding: no binding (tested: 1 μg of each MBP-conjugated prey protein)

Reference: PMC10695385
